“And” between values parts separate entries of the source, which are not always exact repeats. Identical values can stand only once. The list shows a part of the results. Single values are uncertain here, since repeats match poorly.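 HEK293T cells were given each compound shortly before transfection with a reporter in which red mCherry is followed by the SARS-CoV-2 frameshift element and then GFP in the −1 frame, so GFP appears only after frameshifting.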

For assay [1], the system named is SARS-CoV-2 -1 PRF reporter mCherry-FSE-GFP(-1). Kind of assay: mCherry (red) intensity as percent of control; higher = higher upstream reporter expression. Particulars: 10 µM; 24 h; HEK293T.
Assay [2] shares this test system. The assay is described as follows: percent effect, decrease of GFP/mCherry ratio (-1 PRF reporter) relative to controls; higher = stronger frameshift inhibition. Conditions: 10 µM; 24 h; HEK293T.

In assay [1], `COCC(=O)O[C@]1(CCN(C)CCCc2nc3ccccc3[nH]2)CCc2cc(F)ccc2[C@@H]1C(C)C` [mibefradil] displayed a mCherry of 126%. In addition, in assay [2], the percent effect was -0.39%.

In assay [1], `C#C[C@]1(O)CC[C@H]2[C@@H]3CCc4cc(O)ccc4[C@H]3CC[C@@]21C` [ethinylestradiol] registered a mCherry of 171%. The percent effect in assay [2] is 1.19%.

With `C=C(NC(=O)c1csc(-c2nc3c(cc2O)-c2nc(cs2)C(=O)NC(C(C)O)C(=O)N/C(=C\C)c2nc(cs2)C(=O)NC2CC(O)C(=O)OCc4cccc5[nH]c(c(C)c45)C(=O)SCC(NC(=O)c4csc2n4)c2nc-3cs2)n1)C(N)=O` (stereo not drawn) [nosiheptide], in assay [1], the mCherry came to 76.7%. Besides, the percent effect in assay [2] was -14.9%.

As to `Nc1cc(-c2ccncc2)c[nH]c1=O` [amrinone], the mCherry in assay [1] is 105% and 82.9%. In assay [2], the percent effect was -3.99% and 1.31%.

Take `O=C(NCC1[C@H]2CN(C(=O)OCc3cc(C(F)(F)F)cc(C(F)(F)F)c3)C[C@@H]12)c1ccc2n[nH]nc2c1` (stereo partly drawn): the mCherry in assay [1] amounted to 78.6%. In addition, the percent effect in assay [2] is -1.2%.

As to `Cc1ccc(C(=O)N(CCCN)[C@@H](c2nc3cc(Cl)ccc3c(=O)n2Cc2ccccc2)C(C)C)cc1` [ispinesib], the mCherry in assay [1] is 16.5%. For the same compound, the percent effect in assay [2] was -9.98%.

For the compound `N/C(=N\C(=O)c1nc(Cl)c(N)nc1N)NCc1ccccc1` [Benzamil], the mCherry in assay [1] was 67.8%. In assay [2], the percent effect was -12.8%.

`CC(C)(Oc1ccc(CCNC(=O)c2ccc(Cl)cc2)cc1)C(=O)O` [bezafibrate]: the mCherry in assay [1] is 126% and 120%. In addition, in assay [2], the percent effect is 0.792% and -1.56%.

With `CC(=O)NCCCS(=O)(=O)O`, the mCherry in assay [1] came to 137%. Further, in assay [2], the percent effect amounted to 1.72%.

In assay [1], `CC(/C=C1\SC(=S)N(CC(=O)O)C1=O)=C\c1ccccc1` [epalrestat] came in with a mCherry of 98.5%. The percent effect in assay [2] stood at 0.295%.

As to `Cc1ccsc1/C=C/C1=NCCCN1C` [morantel], the mCherry in assay [1] amounted to 58.2%. Moreover, the percent effect in assay [2] is -6.27%.

With `CCC[S+]([O-])c1ccc2[nH]c(NC(=O)OC)nc2c1` (stereo not drawn) [albendazole oxide], the mCherry in assay [1] turned out to be 95.2%. Besides, in assay [2], the percent effect was -0.514%.

`Nc1ncnc2c1ncn2[C@@H]1O[C@H](COP(=O)(O)OP(=O)(O)OP(=O)(O)O)[C@@H](O)[C@H]1O` [Adephos] registered a mCherry in assay [1] of 116%. The percent effect in assay [2] was -2.08%.

For the compound `c1ccc(OCc2ccc(CCCN3CCOCC3)cc2)cc1` [fomocaine], in assay [1], the mCherry amounted to 75.6%. The percent effect in assay [2] is -3.94%.

`O=C(CCCN1CCC(O)(c2ccc(Cl)cc2)CC1)c1ccc(F)cc1` [haloperidol]: in assay [1], the mCherry is 94.5% and 105%. For the same compound, the percent effect in assay [2] was -4.31% and -1.61%.

Compound `Cc1cccc(Oc2cnc(=O)[nH]c2)c1` [tolimidone] returned a mCherry in assay [1] of 101%. Besides, the percent effect in assay [2] is -1.41%.

On to `COc1cc(C)c(/C=C/C(C)=C/C=C/C(C)=C/C(=O)O)c(C)c1C` [acitretin], for which the mCherry in assay [1] is 94% and 99.7%. Further, the percent effect in assay [2] is -6.76% and -0.489%.

On to `C=C[C@@]1(C)CC(=O)[C@]2(O)[C@@]3(C)[C@@H](O)CCC(C)(C)[C@@H]3[C@H](O)[C@H](OC(C)=O)[C@@]2(C)O1` [colforsin], for which the mCherry in assay [1] came out at 59.2%. In assay [2], the percent effect was -7.48%.

On to `CC(N/C(=N\C#N)Nc1ccncc1)C(C)(C)C` (stereo not drawn), for which the mCherry in assay [1] turned out to be 92.2%. For the same compound, in assay [2], the percent effect is -3.46%.

In the case of `O=C(O)C1=C(CSc2nnnn2CS(=O)(=O)O)CS[C@@H]2[C@H](NC(=O)[C@H](O)c3ccccc3)C(=O)N12`, the mCherry in assay [1] was found to be 91.5%. The percent effect in assay [2] was -4.32%.

In assay [1], `CCS(=O)(=O)c1cc2cc(C[C@](O)(CC(C)(C)c3ccc(F)cc3C(N)=O)C(F)(F)F)[nH]c2cn1` gave a mCherry of 97.1%. In addition, in assay [2], the percent effect is -2.64%.

For `CCC(C)CCCCC(=O)NC(CCN)C(=O)NC(C(=O)NC(CCN)C(=O)NC1CCNC(=O)C(C(C)O)NC(=O)C(CCN)NC(=O)C(CCN)NC(=O)C(CC(C)C)NC(=O)C(Cc2ccccc2)NC(=O)C(CCN)NC1=O)C(C)O` (stereo not drawn), the mCherry in assay [1] stood at 88.9%. The percent effect in assay [2] is -1.75%.

For `CNC[C@H](O)c1ccc(O)c(O)c1` [epinephrine], the mCherry in assay [1] stood at 90.6%. Besides, the percent effect in assay [2] was -2.03%.

The compound `CC(C)(C)NCC(O)COc1cc(Cl)ccc1Cl` (stereo not drawn) [cloranolol] had a mCherry in assay [1] of 98.5%. For the same compound, the percent effect in assay [2] is -3.52%.

In assay [1], `Oc1ccc(O)cc1` returned a mCherry of 85.4%. Moreover, in assay [2], the percent effect was -4.64%.

Regarding `CCNC(=O)CCC/C=C\C[C@@H]1[C@@H](/C=C/[C@@H](O)CCc2ccccc2)[C@H](O)C[C@@H]1O` [bimatoprost], in assay [1], the mCherry was determined as 104%. Further, in assay [2], the percent effect came out at 0.644%.

Regarding `CCCCCOc1ccc(-c2ccc(-c3ccc(C(=O)N[C@H]4C[C@@H](O)[C@@H](O)NC(=O)[C@@H]5[C@@H](O)[C@@H](C)CN5C(=O)[C@H]([C@@H](C)O)NC(=O)[C@H]([C@H](O)[C@@H](O)c5ccc(O)cc5)NC(=O)[C@@H]5C[C@@H](O)CN5C(=O)[C@H]([C@@H](C)O)NC4=O)cc3)cc2)cc1` [Eraxis], the mCherry in assay [1] came out at 21.1%. Also, in assay [2], the percent effect is -23.2%.

As to `COc1cc(NC(=O)Nc2cccc(CNC(=O)O[C@H]3CCOC3)c2)ccc1-c1cnco1` [merimepodib], in assay [1], the mCherry turned out to be 93.8%. In addition, the percent effect in assay [2] is -10.4%.

Compound `COc1ccc2c(c1)C(O)(CCCN(C)C)c1ccccc1S2` (stereo not drawn) [meprotixol] had a mCherry in assay [1] of 75.5%. Further, in assay [2], the percent effect is -2.73%.

The values above are taken from the supplement of paper PMC8256030.
